Measurements reported in PubChem BioAssay AID1259405 (NCATS, 2018)
Purpose: 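Knock-downs that lift recombinant protein yield in hamster ovary cells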 (primary screen). Cells: Chinese hamster CHO-K1 ovary cells with stable secreted eGFP expression. Reagents: single siRNA against mouse genes, 0.8 pmol siRNA per well (2 µl of 400 nM stock). Timing: 3 days. Measurement: 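Percent of the per-plate non-targeting control median for intracellular GFP per well by laser scanning cytometry and for cell viability by ATP luminescence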. Direction: GFP, % of control: higher = more GFP per well, higher productivity. Hit rule: 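Called active when intracellular GFP, relative to negative control, is at or above 120%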.
This is one part, drawn at random, of about 50,000 reagents. About 4,000 of them (8%) were called active. 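Mouse siRNA library applied to hamster cells; one well for each siRNA.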 Further read-outs or replicates are left out here. No sequences are given here.

GFP, % of control, by gene and reagent
Or8k40: SID363554338 127 active; SID363567785 67.9 inactive; SID363585142 30.8 inactive
Tubgcp4: SID363541087 58.5 inactive; SID363555714 95.5 inactive; SID363566003 44.9 inactive
Cyp2j13: SID363544224 113 inactive; SID363550552 132 active; SID363557101 78.5 inactive
Shoc2: SID363541798 74.1 inactive; SID363553390 71.5 inactive; SID363566714 71.3 inactive
Stk3: SID363570876 62.5 inactive
Gngt2: SID363570144 150 active; SID363576480 90.5 inactive; SID363579648 84.8 inactive
Gzmd: SID363547214 148 active; SID363557983 82.9 inactive; SID363559741 79.8 inactive
Or6c35: SID363554677 84.1 inactive; SID363568124 40.3 inactive; SID363586183 73.5 inactive
Nudt21: SID363569464 103 inactive; SID363577208 71.4 inactive; SID363578616 78.1 inactive
Acad9: SID363574952 100 inactive; SID363580584 58.8 inactive; SID363582696 73.2 inactive
Pclaf: SID363543836 40.8 inactive; SID363551572 60.8 inactive; SID363559177 61.7 inactive
Or4e1: SID363554293 62 inactive; SID363567740 96.9 inactive; SID363585097 65.7 inactive
Prss42: SID363574527 98.6 inactive; SID363575583 46.9 inactive; SID363580159 76.9 inactive
Sbsn: SID363555038 87.8 inactive; SID363568485 44.6 inactive; SID363586544 50.9 inactive
Abhd17c: SID363543404 68.6 inactive; SID363552897 63.4 inactive; SID363558745 78.9 inactive
4930470P17Rik: SID363542508 96.8 inactive; SID363551999 58.6 inactive; SID363559604 83.1 inactive
Sub1: SID363581653 73.5 inactive; SID363589147 83.1 inactive
Coq6: SID363572954 62.8 inactive; SID363577530 83.6 inactive; SID363581050 76.8 inactive
Or8k1: SID363554097 28.3 inactive; SID363567544 64.8 inactive; SID363584901 81.9 inactive
Nkain2: SID363552197 46 inactive; SID363585333 97.4 inactive; SID363585684 57.7 inactive
Nup85: SID363554725 64.9 inactive; SID363568172 112 inactive; SID363586231 81.9 inactive
1700024B05Rik: SID363543516 71.5 inactive; SID363553009 105 inactive; SID363558857 82.4 inactive
Cckar: SID363571209 98 inactive; SID363571561 71.8 inactive; SID363571913 105 inactive
Vldlr: SID363545075 104 inactive; SID363551403 53.7 inactive; SID363557952 85.2 inactive
Barhl2: SID363569551 91.5 inactive; SID363577295 90 inactive; SID363578703 59.3 inactive
Ptcd1: SID363546004 120 inactive; SID363549517 64.8 inactive; SID363563323 84 inactive
Ptpn20: SID363547755 79.4 inactive; SID363558524 99 inactive; SID363560282 71.3 inactive
Cimap1c: SID363546989 94.3 inactive; SID363549801 82.9 inactive; SID363587855 84 inactive
Dlst: SID363570536 58.9 inactive; SID363579336 103 inactive; SID363583208 82.7 inactive

Entries listed above called active, once more:
GFP, % of control, by gene and reagent
Or8k40: SID363554338 127 active
Cyp2j13: SID363550552 132 active
Gngt2: SID363570144 150 active
Gzmd: SID363547214 148 active
